Assay results from PMC7610364 (Nature microbiology, 2020).

Test system: TbCLK1 C215A
Experiment: Recombinant TbCLK1 C215A mutant enzyme activity assay
Type: biochemical, Trypanosoma brucei
Conditions: dose-response, result in words

CN[C@@H]1C[C@H]2O[C@@](C)([C@@H]1OC)n1c3ccccc3c3c4c(c5c6ccccc6n2c5c31)C(=O)NC4 [staurosporine]
inhibition of TbCLK1 C215A: is inhibited
